In brackets after ≈: the same amount, converted by molar mass.
Test system: 22Rv1 prostate cancer cells
Assay: MTS cytotoxicity assay, 22Rv1
Conditions: Homo sapiens, 22Rv1, 72 h, read-out: 22Rv1 IC50

**Q.** For `CNC(=O)c1ccc(N2C(=S)N(c3ccc(C#N)c(C(F)(F)F)c3)C(=O)C2(C)C)cc1F` [Enzalutamide, enzalutamide, reference compound], which IC50 is on record?
**A.** 29 ± 2.4 µg/mL (≈ 62.4 µM)

Source: article PMC5557372 (ChemMedChem, 2017)
